Consider one sequence from publication PMC5996148.

Sequences of proteins named here, by UniProt entry; tags and fusion partners are left off. A change or cut given only in a name is not applied to a line headed by its entry.
UniProt Q6UWZ7: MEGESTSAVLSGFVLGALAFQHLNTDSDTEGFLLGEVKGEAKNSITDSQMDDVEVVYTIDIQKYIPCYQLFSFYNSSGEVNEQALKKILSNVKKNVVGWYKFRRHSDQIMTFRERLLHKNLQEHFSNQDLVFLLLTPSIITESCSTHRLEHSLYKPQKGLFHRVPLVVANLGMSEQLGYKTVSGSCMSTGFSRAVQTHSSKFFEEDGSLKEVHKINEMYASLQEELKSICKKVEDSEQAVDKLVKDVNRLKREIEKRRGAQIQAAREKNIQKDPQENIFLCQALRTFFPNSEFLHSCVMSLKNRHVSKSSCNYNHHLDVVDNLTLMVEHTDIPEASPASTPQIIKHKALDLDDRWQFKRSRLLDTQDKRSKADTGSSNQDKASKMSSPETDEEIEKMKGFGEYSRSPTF

Holding throughout (assay): protein microarray (ProtoArray v5.0), streptavidin-Alexa Fluor 647
Common to all, as to settings: 3'-biotin; 20 mM Tris (pH 7.5), 5 mM MgCl2, 100 mM KCl, 0.1% Tween-20, A/T-rich and random oligonucleotide blockers; temperature not stated; high values mean tight binding

One assay addresses CCDC98 (UniProt Q6UWZ7).
A further assay concerns CCL14 (human).
In the next assay the test system is CCL3 (human).
A further assay concerns CCL3L3 (human).
The next assay deals with CCL4 (human).
The target of another assay is T1, CCND3 (UniProt P30281).
T1 sequence: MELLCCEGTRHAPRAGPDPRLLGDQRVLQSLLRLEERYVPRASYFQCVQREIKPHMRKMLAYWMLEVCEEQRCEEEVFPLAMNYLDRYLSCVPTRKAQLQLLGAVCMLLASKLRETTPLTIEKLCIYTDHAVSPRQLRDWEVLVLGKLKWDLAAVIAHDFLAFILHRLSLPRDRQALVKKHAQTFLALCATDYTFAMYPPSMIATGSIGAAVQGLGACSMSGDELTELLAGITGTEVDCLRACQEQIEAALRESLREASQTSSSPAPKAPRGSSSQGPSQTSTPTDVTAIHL

In the next assay the test system is CCNDBP1 (human).
In a further assay the target is T2, CCNF (UniProt P41002).
T2 sequence: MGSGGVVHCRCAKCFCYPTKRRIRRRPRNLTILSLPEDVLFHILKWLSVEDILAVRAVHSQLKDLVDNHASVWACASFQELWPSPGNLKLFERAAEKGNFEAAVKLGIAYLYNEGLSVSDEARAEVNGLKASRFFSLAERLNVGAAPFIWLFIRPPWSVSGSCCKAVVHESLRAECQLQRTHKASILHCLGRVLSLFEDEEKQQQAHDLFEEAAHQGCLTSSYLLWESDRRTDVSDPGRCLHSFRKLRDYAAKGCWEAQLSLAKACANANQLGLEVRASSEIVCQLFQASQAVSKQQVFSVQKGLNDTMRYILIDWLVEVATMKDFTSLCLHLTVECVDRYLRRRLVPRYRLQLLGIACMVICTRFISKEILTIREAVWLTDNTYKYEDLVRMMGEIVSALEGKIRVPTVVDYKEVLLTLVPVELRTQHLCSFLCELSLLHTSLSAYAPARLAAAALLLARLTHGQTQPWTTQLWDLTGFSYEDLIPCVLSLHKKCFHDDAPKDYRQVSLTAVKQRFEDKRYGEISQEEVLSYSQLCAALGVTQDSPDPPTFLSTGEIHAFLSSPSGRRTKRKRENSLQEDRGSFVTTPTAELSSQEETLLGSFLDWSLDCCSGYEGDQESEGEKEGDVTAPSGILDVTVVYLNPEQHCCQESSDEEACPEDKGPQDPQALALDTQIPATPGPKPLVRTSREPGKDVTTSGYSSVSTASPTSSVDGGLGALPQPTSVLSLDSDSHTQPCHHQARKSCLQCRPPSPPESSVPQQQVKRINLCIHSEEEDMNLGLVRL

For a further assay, the system named is CCRK (human).
In a further assay the test system is CCT2 (human).

The list shows a part of the results. For some of these results: The source does not settle which construct or isoform was used.

As to “GGGAGGCTGAGGCAGG [G4-1 biotinylated (PQS2)]”, the binding signal with CCDC98 is -0.325 z-score; in the assay on CCL14 (human), -0.308 z-score; in the assay on CCL3 (human), -0.35 z-score; with CCL3L3 (human), -0.332 z-score; in the assay on CCL4 (human) it was -0.336 z-score; with CCND3, -0.327 z-score. Also, the binding signal is -0.328 z-score in the assay with CCNDBP1 (human), -0.348 z-score with CCNF, -0.324 z-score in the assay with CCRK (human) and -0.336 z-score with CCT2 (human).
